# “Also recorded” adds a separate entry of the source. At least one compound was matched to its structure with a doubt left.
# Legend:
# JNK1/2 = test: Western blot analysis of JNK1/2 phosphorylation; assay type: cell-based, human; settings: SP600125 10 μM, 1 h pre-treatment; rhHMGB1 80 nM, 24 h (FIG. 4)
# Procedure: The U251 MG tumor cells were lysed in lysis buffer containing 20 mmol/L Tris-HCl (pH 7.4), 137 mmol/L NaCl, 10% (v/v) glycerine, 1% Triton X-100, 2 mmol/L EDTA, 100 mmol/L phenylmethylsulfonyl fluoride, and protease inhibitors (Complete mini; Roche Molecular Biochemicals). For the detection of phosphoprotein levels, 10 mmol/L NaPPi, 50 mmol/L NaF, and 20 mmol/L NaVO4 were added to the lysis buffer. After 15 min incubation on ice, the lysates were centrifuged at 14,000×g for 10 min. The total protein concentration of the lysates was measured using the Bradford assay (Bio-Rad). Soluble protein (25-100 μg per lane) was separated on 10% to 15% polyacrylamide gels and blotted onto nitrocellulose by standard procedures. […]
# [1] = test system: U251MG glioblastoma cells; test: Cytotoxicity assay, cell survival by crystal violet staining; assay type: cell-based, human; settings: SP600125 10 μM, 48 h with rhHMGB1 (FIG. 3D)
# Procedure: 20,000 U251MG glioblastoma cells or human astrocytic cells (ScienCell) were plated into 96-well plates. After 24 h cells were treated with rhHMGB1 (Sigma Aldrich) or rat recombinant HMGB1 (generously provided by Angelika Bierhaus, Heidelberg, Germany), and TRAIL (for 24 h) or Temozolomide (for 72 h) alone or in combination, respectively. […] Cell proliferation was assessed by seeding 50,000 U251 MG cells in 6 cm culture plates and treatment with rhHMGB1, followed by counting the cells in a Neubauer chamber at day 0, 2, 4 and 5.
structure (smiles),measurement,setting,value
Oc1c2ccccc2c2c3c(cccc13)N=N2 [SP600125],effect on rhHMGB1-induced JNK phosphorylation,JNK1/2,reduced the amount of phosphorylated JNK; also recorded: blocked
same,effect on rhHMGB1-induced cell death,[1],partly inhibited cell death

# From patent US20110123483A1, “HMGB1 FOR CANCER TREATMENT” (DEUTSCHES KREBSFORSCHUNGSZENTRUM, priority 2009, published 2011)
